No constants are given. Whether binding was seen depends on the method and setting. Some results given as binding are weak or reduced against the parent protein; the word gives no strength.
How the values were obtained:
[1] = target: human dimeric IL-23 (eBiosciences 34-8239) (human) (UniProt P29460+Q9NPF7); assay: SPR
[2] = target: T1, monkey IL-12 (macaque) (macaque) (UniProt P48091+P48095); assay: ELISA, monkey (macaque) IL-12 coated on the plate; antibody concentration not given [Binding to Monkey IL-12]
[3] = target: T1, monkey IL-12 (macaque) (macaque); assay: ELISA, monkey IL-12 (macaque) coated on the plate (FIG. 36A, second panel)
[4] = target: T1, monkey IL-12 (macaque) (macaque); assay: ELISA on plate-coated monkey IL-12
3×FLAG-IL-6 (human) = assay: ELISA on plate-coated recombinant IL-6, HEK293 supernatants of chimeric IgG

Amino acid sequences for entries named in this document (tags omitted). A change or cut given only in a name is not applied to a line headed by its entry.
UniProt P29460: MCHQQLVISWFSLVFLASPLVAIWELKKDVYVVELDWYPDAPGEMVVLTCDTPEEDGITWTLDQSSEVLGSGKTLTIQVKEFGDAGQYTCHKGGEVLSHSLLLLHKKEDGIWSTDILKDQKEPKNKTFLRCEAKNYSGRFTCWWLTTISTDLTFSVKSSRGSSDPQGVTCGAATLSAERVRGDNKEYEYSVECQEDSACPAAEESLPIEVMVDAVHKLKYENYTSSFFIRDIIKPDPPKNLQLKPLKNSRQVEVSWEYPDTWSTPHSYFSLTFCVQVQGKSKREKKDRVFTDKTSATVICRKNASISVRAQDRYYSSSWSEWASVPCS
UniProt Q9NPF7: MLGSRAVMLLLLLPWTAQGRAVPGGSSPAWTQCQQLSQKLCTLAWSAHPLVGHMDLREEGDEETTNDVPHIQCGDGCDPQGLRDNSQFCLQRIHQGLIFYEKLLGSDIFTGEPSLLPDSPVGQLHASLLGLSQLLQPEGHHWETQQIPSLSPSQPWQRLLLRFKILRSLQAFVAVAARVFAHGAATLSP
UniProt P48091: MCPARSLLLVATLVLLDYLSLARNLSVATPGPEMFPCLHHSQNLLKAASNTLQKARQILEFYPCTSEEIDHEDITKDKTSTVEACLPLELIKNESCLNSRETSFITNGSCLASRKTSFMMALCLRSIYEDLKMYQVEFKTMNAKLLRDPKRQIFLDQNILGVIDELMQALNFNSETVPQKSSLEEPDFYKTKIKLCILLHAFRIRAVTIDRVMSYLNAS
UniProt P48095: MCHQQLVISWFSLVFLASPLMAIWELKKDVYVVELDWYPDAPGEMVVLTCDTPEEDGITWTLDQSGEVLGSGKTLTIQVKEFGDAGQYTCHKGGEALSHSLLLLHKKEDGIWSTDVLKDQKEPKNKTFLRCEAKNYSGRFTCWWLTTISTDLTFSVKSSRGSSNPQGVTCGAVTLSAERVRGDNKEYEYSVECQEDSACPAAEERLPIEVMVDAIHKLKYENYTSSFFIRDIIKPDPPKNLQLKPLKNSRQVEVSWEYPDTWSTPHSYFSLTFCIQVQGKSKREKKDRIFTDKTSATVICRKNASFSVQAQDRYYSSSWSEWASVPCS

Binder	binding [2]	binding [3]	binding [4]	binding (3×FLAG-IL-6 (human))	also measured
31A12 humanized scFv (mammalian expressed) (scFv) scFv: DIQLTQSPSFLSASVGDRVTITCQASEDIESYLAWYQQKPGKAPKLLIYSASTLTSGVPSRFSGSGSGTEFTLTISSLQPEDFATYYCLGADDTTTVFGGGTKVEIKGGGGSGGGGSGGGGSGGGGSEVQLVESGGGLVQPGGSLRLSCTASGFSLSSYWMTWVRQAPGKGLEWVGTIATSSTYYASWAKGRFTISRDNSKNTLYLQMNSLRAEDTAVYYCARGLTTDYDLDLWGQGTLVTVSSGPPPPHHHHHH					binding [1]: binds
22H8 chimeric mAb (antibody, V domains shown) VH: QSLEESGGRLVTPGTPLTLTCTVSGFSLSTYTMNWVRQSPGKGLEWIGAISYDGGTAYANWAKGRFTISKTSTTVDLQIASPTTEDTATYFCARGFYVYAYIGDAFDPWGPGTLVTVSS VL: AVLTQTPSPVSATVGGTVTIKCQSSQTVYKNNLLSWYQQKPGQPPKLLIYLASTLASGVPSRFSGSGSGTQFTLTISGVQCDDAATYYCLGGYDDDADTAFGGGTEVVVVR	binds	binds	binds		
9H4 chimeric mAb (antibody, V domains shown) VH: QSLEESGGRLVTPGTPLTLTCTASGFSLSSYDMSWVRQAPGKGLEWIGYIYTDTSTYYANWAKGRFSISKTSTTVDLKMTSLTAEDTATYFCAKGSTDYAFDTRLDLWGPGTLVTVSS VL: YDMTQTPASVEVAMGGTVTIKCQASQSISNELSWYQQKPGQPPKLLIYRTSTLASGVSSRFKGSGSGTEYTLTISGVECADAATYYCQQGYNSNDVDNVFGGGTEVVVVR				binds	
8C8 chimeric mAb (antibody, V domains shown) VH: QSVEESGGRLVAPGGSLTLTCKASGFSLSSSGVSWVRQAPGKGLEWIGYVSIADTISYANWAKGRFTISKTSSTTVDLEMTSLTTEDTATYFCVRGFITYSGVLWGPGTLVTVSS VL: QVLTQTPASVSAAVGGTVTISCQSSQNVYSNAFLSWYQQKPGQPPKLLIYKASKLASGVPSRFSGSGSGTQFTLTISGVQCDDAATYYCAGEYEGGIGTFGGGTEVVVVR				binds	
18D4 chimeric mAb (antibody, V domains shown) VH: QSVEESGGRLVTPGTPLTLTCTVSGFSLSSYAMTWVRQAPGKGLEWIGTSYVYSGDTWYASWVKGRFTISKTSTTVDLKITSPTTEDTATYFCARVGDYDDYGAHDVFDSWGPGTLVTVSS VL: YDMTQTPASVEVAVGGTVTIKCQASESISSWLSWYQQKPGQRPKLLLYRASTLASGVSSRFSGSGYGTEFTLTISGVQCEDAATYYCQQGYTGGNVDNAFGGGTKVVVVR				binds	
13A8 chimeric mAb (antibody, V domains shown) VH: QSVEESGGRLVTPGTPLTLTCTVSGIDLSSYDMSWVRQAPGKGLEWIGYIYTDSSTWYANWAKGRFTISKTSSTTVDLKMTSLTTEDTATYFCAKGSTDYAFDTRLDLWGPGTLVTVSS VL: NIVMTQTPSPVSGAVGGTVTINCQASQSISNELSWYQQKPGQPPRLLIYRASTLTSGVSSRFKGSGAGTQFTLTISGVECADAATYYCQQGYNSNDVDNVFGGGTKVVVVR				binds	
9C8 chimeric mAb (antibody, V domains shown) VH: QSVEESGGRLVTPGTPLTLTCTVSGIDLSSYDMSWVRQAPGKGLEWIGYIYTDSSTYYANWAKGRFTISKTSTTVDLKMTSLTTEDTATYFCAKGSTDYAFDTRLDLWGPGTLVTVS VL: AYDMTQTPASVEVAMGGTVTIKCQASQSISNELSWYQQKPGQPPKLLIYRTSTLASGVSSRFKGSGSGTEYTLTISGVECADAATYYCQQGYNSNDVDNVFGGGTKVVVVR				binds	

More lines, main results first:

binding [2]	binding [3]	binding [4]	binding (3×FLAG-IL-6 (human))	Binder	also measured
binds	binds	binds		49B7 chimeric mAb (antibody, V domains shown) VH: QSLEESGGRLVTPGGSLTLTCTVSGIDLSDYDMSWVRQAPGKGLEWIGIVYDIGTIYYAPWAEGRFTISKTSTTVDLKMSSLTTEDTATYFCAREAPGYSDGDIWGPGTLVTVSS VL: ALVMTQTPSSVSAAVGGTVTINCQASETVDNNKRLSWYQQKPGQPPKLLIYGAATLASGVPSRFKGSGSGAHFTLTISNVQREDAATYVCGGYKDSTDVGFGGGTELEILR	
binds	binds	binds		31A12 chimeric mAb (antibody, V domains shown) VH: QSLEESGGRLVTPGTPLTLTCTASGFSLSSYWMTWVRQAPGGGLEWIGTIATSSTYYASWAKGRFTISRTSTTVDLKMTSLTTEDTATYFCARGLTTDYDLDLWGPGTLVTVSS VL: LVMTQTPASVSAAVGGTVTINCQASEDIESYLAWYQQKPGQRPKLLIYSASTLTSGVPSRFKGSGSGKQFTLTISGVQREDAATYYCLGADDTTTVFGGGTKVVVVR	
			binds	28D2 chimeric mAb (antibody, V domains shown) VH: QSLGESGGRLVTPGTPLTLTCTVSGLSLSKNAIAWVRQAPGKGLEWIGIIYAGGATTYASWAKGRFTISKSSTTVDLKITSPTTVDTATYFCAREYAGDSYYTGYTQLDLWGPGTLVTVSS VL: ALVMTQTPASVSAAVGGTVTINCQASEDLFSSLAWFQQKPGQPPKLLIYSASTLASGVPSRFSGSGSGTEFTLTISDLECADAATYYCLGLYYYLTPDPIYGFGGGTKVVVV	

Reference: patent US20160194391A1
